Assay results reported in paper PMC7042691.

The chains behind the UniProt entries cited, without tags or fusion partners. Residues count along the entry.
UniProt Q8I4U5: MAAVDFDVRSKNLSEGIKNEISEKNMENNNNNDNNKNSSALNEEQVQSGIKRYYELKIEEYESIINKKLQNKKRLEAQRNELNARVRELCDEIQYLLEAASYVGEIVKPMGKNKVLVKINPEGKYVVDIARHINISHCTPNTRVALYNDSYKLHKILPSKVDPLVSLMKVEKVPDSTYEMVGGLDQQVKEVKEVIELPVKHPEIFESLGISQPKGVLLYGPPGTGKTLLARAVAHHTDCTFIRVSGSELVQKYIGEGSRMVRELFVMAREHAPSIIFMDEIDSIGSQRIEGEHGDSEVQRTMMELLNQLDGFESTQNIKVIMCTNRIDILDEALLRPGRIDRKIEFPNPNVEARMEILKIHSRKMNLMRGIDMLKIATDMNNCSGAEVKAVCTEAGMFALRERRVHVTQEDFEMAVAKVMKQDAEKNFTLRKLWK
UniProt Q8ILV2: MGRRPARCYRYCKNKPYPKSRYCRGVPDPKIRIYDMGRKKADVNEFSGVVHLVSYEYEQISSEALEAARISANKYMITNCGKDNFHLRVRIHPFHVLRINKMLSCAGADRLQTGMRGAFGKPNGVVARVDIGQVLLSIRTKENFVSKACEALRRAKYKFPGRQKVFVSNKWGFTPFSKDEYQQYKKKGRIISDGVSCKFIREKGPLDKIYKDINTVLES
UniProt Q8IKW5: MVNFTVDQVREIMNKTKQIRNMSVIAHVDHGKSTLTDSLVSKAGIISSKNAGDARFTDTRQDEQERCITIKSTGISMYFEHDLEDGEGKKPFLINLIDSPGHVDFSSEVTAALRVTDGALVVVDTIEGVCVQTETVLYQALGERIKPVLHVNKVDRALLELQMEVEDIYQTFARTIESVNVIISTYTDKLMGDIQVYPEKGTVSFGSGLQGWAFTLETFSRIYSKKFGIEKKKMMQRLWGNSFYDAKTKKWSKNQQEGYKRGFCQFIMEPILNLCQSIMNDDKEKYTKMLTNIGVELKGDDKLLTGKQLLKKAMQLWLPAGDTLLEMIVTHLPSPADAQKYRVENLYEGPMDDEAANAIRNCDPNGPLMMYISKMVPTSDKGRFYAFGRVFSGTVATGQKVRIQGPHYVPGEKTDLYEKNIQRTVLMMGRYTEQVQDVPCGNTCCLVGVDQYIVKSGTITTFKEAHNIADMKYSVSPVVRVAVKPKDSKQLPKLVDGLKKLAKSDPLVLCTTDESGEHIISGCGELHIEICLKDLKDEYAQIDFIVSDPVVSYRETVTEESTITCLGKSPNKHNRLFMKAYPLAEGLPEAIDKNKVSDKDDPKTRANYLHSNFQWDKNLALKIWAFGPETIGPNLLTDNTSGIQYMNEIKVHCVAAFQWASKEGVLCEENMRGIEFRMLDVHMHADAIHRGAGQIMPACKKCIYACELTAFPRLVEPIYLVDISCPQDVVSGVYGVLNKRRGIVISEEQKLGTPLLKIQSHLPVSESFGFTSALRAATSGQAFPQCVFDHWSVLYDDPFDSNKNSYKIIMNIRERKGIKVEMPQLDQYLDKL
UniProt Q7KQK6: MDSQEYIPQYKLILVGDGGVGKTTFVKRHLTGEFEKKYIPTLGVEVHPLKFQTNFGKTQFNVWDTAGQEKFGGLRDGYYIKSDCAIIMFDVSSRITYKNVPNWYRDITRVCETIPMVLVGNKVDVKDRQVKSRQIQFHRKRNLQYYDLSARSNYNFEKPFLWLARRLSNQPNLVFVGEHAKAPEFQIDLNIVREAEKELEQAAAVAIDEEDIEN
UniProt Q8IKK7: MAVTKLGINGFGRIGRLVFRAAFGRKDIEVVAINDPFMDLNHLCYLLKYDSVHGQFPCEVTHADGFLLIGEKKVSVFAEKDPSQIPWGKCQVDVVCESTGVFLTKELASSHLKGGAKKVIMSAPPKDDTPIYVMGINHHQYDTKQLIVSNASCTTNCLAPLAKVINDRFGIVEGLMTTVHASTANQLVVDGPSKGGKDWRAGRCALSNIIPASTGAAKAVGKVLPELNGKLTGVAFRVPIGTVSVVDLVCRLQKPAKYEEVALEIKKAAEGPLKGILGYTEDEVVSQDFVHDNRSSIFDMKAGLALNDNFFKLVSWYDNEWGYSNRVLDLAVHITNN
UniProt Q8I0U8, residues 20-1694: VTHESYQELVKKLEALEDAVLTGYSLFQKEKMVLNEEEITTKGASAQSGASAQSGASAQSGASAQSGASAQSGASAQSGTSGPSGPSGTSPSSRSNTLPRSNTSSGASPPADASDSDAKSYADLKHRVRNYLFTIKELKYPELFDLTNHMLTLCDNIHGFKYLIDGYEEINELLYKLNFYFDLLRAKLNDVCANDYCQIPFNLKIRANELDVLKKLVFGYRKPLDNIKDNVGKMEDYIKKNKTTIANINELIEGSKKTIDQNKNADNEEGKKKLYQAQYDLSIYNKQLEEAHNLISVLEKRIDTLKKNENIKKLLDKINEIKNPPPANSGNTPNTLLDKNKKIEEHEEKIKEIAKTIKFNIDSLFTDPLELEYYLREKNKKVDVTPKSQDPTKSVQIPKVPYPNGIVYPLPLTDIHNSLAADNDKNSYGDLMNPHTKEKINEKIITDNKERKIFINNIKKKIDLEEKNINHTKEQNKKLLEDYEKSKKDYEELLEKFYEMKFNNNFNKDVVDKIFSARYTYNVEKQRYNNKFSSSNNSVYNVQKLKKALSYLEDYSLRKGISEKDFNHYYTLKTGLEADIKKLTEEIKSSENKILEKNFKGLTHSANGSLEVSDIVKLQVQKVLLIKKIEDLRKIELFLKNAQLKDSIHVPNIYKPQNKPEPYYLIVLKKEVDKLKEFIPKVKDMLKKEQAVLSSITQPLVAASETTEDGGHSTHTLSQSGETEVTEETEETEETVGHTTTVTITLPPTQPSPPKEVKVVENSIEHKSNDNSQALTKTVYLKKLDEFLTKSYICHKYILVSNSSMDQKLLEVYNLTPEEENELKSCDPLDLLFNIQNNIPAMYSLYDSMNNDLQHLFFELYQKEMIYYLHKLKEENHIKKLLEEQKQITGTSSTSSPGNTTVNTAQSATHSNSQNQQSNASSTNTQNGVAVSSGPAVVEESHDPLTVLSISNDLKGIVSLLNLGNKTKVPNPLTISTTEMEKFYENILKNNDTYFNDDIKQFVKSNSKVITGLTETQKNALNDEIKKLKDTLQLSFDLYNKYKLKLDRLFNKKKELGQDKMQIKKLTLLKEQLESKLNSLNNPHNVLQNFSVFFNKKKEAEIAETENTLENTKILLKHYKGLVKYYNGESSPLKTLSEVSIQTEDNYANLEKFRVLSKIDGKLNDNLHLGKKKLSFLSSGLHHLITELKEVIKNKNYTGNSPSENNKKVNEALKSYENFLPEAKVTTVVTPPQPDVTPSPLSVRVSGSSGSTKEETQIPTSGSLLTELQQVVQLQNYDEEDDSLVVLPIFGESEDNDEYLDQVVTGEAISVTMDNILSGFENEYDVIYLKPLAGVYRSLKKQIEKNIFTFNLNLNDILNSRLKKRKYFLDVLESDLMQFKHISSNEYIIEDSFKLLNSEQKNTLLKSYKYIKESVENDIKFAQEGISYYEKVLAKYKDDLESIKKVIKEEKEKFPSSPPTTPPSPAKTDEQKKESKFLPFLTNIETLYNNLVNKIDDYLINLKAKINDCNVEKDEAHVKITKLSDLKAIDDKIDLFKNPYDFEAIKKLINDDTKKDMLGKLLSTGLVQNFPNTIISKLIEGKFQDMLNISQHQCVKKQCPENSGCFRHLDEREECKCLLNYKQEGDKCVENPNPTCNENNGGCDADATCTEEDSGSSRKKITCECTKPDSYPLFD

target: T1, GFP::PfK13 (Plasmodium falciparum Kelch 13 protein, N-terminally tagged with 2xFKBP-GFP-2xFKBP) (Plasmodium falciparum) (UniProt Q8IDQ2); experiment: affinity purification with mass spectrometry; GFP-Trap beads incubated with lysate of asexual blood-stage GFP::PfK13 parasites (30 mM Tris pH 7.5, 150 mM NaCl, 0.5 mM EDTA, 0.5% NP-40) for 4 h or overnight at 4°C; 3D7 parasites as control; LC-MS/MS; proteins common to three biological replicates, FDR 1%
T1 sequence: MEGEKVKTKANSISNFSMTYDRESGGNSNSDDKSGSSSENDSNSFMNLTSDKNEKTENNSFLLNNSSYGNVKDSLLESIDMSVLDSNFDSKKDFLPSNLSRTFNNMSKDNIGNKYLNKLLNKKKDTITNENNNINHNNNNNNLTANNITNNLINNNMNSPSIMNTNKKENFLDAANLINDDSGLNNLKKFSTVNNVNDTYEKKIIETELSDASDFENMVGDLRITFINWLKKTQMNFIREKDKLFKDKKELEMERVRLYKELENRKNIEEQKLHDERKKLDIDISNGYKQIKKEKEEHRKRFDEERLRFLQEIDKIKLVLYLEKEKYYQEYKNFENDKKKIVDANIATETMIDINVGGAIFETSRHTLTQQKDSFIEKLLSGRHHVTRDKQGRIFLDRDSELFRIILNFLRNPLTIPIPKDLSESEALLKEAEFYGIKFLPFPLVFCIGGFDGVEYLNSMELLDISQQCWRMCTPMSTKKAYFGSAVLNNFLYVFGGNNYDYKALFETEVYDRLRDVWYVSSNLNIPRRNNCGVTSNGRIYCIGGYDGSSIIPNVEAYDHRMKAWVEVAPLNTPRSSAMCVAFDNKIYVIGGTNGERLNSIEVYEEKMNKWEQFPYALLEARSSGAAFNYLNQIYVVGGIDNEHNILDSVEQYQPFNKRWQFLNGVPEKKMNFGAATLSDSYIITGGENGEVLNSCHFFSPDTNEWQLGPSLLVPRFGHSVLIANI

Substance | binding
26S protease regulatory subunit 8 (from UniProt Q8I4U5 1-435) | binds
40S ribosomal protein S11 (from UniProt A0A5K1K925 1-151) | binds
40S ribosomal protein S15A (from UniProt O77395 1-130) | binds
60S ribosomal protein L10 (from UniProt Q8ILV2 1-219) | binds
DNA/RNA-binding protein Alba 1 (from UniProt Q8IAX8) | binds
DNA/RNA-binding protein Alba 3 (from UniProt Q8IJX8) | binds
Elongation factor 1-alpha (from UniProt Q8I0P6 1-443) | binds
Elongation factor 2 (from UniProt Q8IKW5 1-832) | binds
GTP-binding nuclear protein (from UniProt Q7KQK6 1-214) | binds
Glyceraldehyde-3-phosphate dehydrogenase (from UniProt Q8IKK7 1-337) | binds
Merozoite surface protein 1 (from UniProt Q8I0U8 20-1694) | binds
Parasitophorous vacuolar protein 1 (from UniProt Q8II72) | binds
Plasmepsin II (from UniProt Q8I6V3) | binds

These are yes or no findings as the source states them, for the method shown. In cells and extracts the contact can be indirect. These calls come from enrichment with a bait or labelling near it, and not all partners need be listed. Tags and fused reporters may be left off the sequences shown.
